No constants are given. Whether binding was seen depends on the method and setting.
Biological target: T1, TMEM95 entire ectodomain, monomeric biotinylated bait (mouse) (UniProt P0DJF3)
T1 sequence (chain, biotinylated (site not stated)): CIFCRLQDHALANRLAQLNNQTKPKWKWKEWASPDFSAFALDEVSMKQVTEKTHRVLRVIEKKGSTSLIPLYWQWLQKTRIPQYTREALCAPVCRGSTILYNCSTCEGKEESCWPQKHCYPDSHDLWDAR
Assay: AVEXIS (avidity-based extracellular interaction screening); biotinylated monomeric baits, dialyzed against HBS, immobilised on streptavidin-coated 96-well plates; pentameric beta-lactamase-tagged preys incubated one hour; washed with HBS/0.1% Tween-20; nitrocefin hydrolysis read as absorbance at 485 nm

- binding: no binding
Substance: JUNO entire ectodomain, pentameric beta-lactamase-tagged prey (mouse) (domain or fragment)

From PMC7295574
